Structures can show the parent of a compound that is named as a salt. ± gives the standard deviation of the averaged measurements. This is one part of the list. Baselines shift from plate to plate; read single values as rough.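 The cells are a mouse kidney inner medullary collecting duct line, silenced either for the ciliary gene Rpgrip1l or with a non-targeting control siRNA.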
Columns and labels:
mIMCD3 [1] = test: robust z score of cell number vs plate controls; higher = more cells (less cytotoxic); details: 10 µM, 48 h
mIMCD3 [2] = test: robust z score of cilia incidence (% cells with single cilium) vs plate controls; higher = more ciliated cells; details: 10 µM; 48 h; siRNA: siScr
mIMCD3 [3] = test: robust z score of cilia incidence (% cells with single cilium) vs plate controls; higher = more ciliated cells (rescue of cilia loss); details: 10 µM; 48 h; siRNA: siRpgrip1l

Row | SMILES | robust z score of cell number (mIMCD3 [1]; siRNA: siRpgrip1l) | robust z score of cell number (mIMCD3 [1]; siRNA: siScr) | robust z score of cilia incidence (mIMCD3 [2]) | robust z score of cilia incidence (mIMCD3 [3])
1 | O=C1CCc2c(ccc3ccccc23)O1 [Splitomicin] | -20.9 ± 27 | 4.11 ± 5.4 | 0.622 ± 0.93 | -179 ± 110
2 | CC[N+](CC)(CC)CC(=O)Nc1c(C)cccc1C [QX 314 chloride] | -7.52 ± 6.5 | -0.845 ± 2.2 | 2.43 ± 2.8 | -9.96 ± 3.4
3 | CC(C)C1C2CCC(C2)C1N (centres undefined) | -10.5 ± 6.8 | -2.23 ± 6.3 | 0.404 ± 0.99 | -12.8 ± 2.9
4 | CS(=O)(=O)Nc1ccc([N+](=O)[O-])cc1Oc1ccccc1 [Nimesulide] | -28.5 ± 35 | -11.1 ± 4.2 | 4.96 ± 3.3 | -11.4 ± 1.9
5 | O=C(O)CN1C(=O)c2cccc3cccc(c23)C1=O [Alrestatin] | -13.9 ± 20 | -8.95 ± 13 | -0.363 ± 5.9 | -5.75 ± 6.7
6 | Cc1cc2nc3c(=O)[nH]c(=O)nc-3n(C)c2cc1C=O | -18.1 ± 9 | -16.6 ± 2.6 | -3.54 ± 4.6 | -14.7 ± 8.1
7 | C1CCC2(CC1)CCNCC2 [4,4-Pentamethylenepiperidine hydrochloride] | -48.3 ± 69 | -7.66 ± 6.8 | -15.7 ± 21 | -11 ± 7.8
8 | CC(C(O)c1ccc(O)cc1)N1CCC(Cc2ccccc2)CC1 (centres undefined) [Ifenprodil hemitartrate] | -34.1 ± 20 | -63.3 ± 64 | -14.7 ± 0.6 | -44.8 ± 7.3
9 | Cc1cccc(C(=O)NCN2CCN(c3ccccc3C#N)CC2)c1 | -50 ± 58 | -0.809 ± 3.5 | -0.102 ± 0.39 | -15.3 ± 1.3
10 | CC1=C(/C=C/C(C)=C/C=C/C(C)=C/C(=O)Nc2ccc(O)cc2)C(C)(C)CCC1 [Fenretinide] | -305 ± 220 | -40.3 ± 9.5 | -52.9 ± 9.7 | -30.6 ± 11
11 | OCC1OC(n2cnc3c(NC4CCCC4)nc(Cl)nc32)C(O)C1O (centres undefined) [2-Chloro-N6-cyclopentyladenosine] | -1.39 ± 0.94 | -2.59 ± 0.93 | -2.28 ± 1.3 | -19 ± 9.7

Quoted from above, entries 8 to 9
Row | SMILES | robust z score of cell number (mIMCD3 [1]; siRNA: siRpgrip1l) | robust z score of cell number (mIMCD3 [1]; siRNA: siScr) | robust z score of cilia incidence (mIMCD3 [2]) | robust z score of cilia incidence (mIMCD3 [3])
8 | CC(C(O)c1ccc(O)cc1)N1CCC(Cc2ccccc2)CC1 (centres undefined) [Ifenprodil hemitartrate] | -34.1 ± 20 | -63.3 ± 64 | -14.7 ± 0.6 | -44.8 ± 7.3
9 | Cc1cccc(C(=O)NCN2CCN(c3ccccc3C#N)CC2)c1 | -50 ± 58 | -0.809 ± 3.5 | -0.102 ± 0.39 | -15.3 ± 1.3

Source: the supplement of paper PMC12009310
